Source: publication PMC3362735
These are yes or no findings as the source states them, for the method shown. Some entries that bind do so weakly or less than the wild type.

By UniProt entry, the sequences of proteins in these tests, tags left out. Residues count along the entry.
UniProt P33450, residues 36-5147: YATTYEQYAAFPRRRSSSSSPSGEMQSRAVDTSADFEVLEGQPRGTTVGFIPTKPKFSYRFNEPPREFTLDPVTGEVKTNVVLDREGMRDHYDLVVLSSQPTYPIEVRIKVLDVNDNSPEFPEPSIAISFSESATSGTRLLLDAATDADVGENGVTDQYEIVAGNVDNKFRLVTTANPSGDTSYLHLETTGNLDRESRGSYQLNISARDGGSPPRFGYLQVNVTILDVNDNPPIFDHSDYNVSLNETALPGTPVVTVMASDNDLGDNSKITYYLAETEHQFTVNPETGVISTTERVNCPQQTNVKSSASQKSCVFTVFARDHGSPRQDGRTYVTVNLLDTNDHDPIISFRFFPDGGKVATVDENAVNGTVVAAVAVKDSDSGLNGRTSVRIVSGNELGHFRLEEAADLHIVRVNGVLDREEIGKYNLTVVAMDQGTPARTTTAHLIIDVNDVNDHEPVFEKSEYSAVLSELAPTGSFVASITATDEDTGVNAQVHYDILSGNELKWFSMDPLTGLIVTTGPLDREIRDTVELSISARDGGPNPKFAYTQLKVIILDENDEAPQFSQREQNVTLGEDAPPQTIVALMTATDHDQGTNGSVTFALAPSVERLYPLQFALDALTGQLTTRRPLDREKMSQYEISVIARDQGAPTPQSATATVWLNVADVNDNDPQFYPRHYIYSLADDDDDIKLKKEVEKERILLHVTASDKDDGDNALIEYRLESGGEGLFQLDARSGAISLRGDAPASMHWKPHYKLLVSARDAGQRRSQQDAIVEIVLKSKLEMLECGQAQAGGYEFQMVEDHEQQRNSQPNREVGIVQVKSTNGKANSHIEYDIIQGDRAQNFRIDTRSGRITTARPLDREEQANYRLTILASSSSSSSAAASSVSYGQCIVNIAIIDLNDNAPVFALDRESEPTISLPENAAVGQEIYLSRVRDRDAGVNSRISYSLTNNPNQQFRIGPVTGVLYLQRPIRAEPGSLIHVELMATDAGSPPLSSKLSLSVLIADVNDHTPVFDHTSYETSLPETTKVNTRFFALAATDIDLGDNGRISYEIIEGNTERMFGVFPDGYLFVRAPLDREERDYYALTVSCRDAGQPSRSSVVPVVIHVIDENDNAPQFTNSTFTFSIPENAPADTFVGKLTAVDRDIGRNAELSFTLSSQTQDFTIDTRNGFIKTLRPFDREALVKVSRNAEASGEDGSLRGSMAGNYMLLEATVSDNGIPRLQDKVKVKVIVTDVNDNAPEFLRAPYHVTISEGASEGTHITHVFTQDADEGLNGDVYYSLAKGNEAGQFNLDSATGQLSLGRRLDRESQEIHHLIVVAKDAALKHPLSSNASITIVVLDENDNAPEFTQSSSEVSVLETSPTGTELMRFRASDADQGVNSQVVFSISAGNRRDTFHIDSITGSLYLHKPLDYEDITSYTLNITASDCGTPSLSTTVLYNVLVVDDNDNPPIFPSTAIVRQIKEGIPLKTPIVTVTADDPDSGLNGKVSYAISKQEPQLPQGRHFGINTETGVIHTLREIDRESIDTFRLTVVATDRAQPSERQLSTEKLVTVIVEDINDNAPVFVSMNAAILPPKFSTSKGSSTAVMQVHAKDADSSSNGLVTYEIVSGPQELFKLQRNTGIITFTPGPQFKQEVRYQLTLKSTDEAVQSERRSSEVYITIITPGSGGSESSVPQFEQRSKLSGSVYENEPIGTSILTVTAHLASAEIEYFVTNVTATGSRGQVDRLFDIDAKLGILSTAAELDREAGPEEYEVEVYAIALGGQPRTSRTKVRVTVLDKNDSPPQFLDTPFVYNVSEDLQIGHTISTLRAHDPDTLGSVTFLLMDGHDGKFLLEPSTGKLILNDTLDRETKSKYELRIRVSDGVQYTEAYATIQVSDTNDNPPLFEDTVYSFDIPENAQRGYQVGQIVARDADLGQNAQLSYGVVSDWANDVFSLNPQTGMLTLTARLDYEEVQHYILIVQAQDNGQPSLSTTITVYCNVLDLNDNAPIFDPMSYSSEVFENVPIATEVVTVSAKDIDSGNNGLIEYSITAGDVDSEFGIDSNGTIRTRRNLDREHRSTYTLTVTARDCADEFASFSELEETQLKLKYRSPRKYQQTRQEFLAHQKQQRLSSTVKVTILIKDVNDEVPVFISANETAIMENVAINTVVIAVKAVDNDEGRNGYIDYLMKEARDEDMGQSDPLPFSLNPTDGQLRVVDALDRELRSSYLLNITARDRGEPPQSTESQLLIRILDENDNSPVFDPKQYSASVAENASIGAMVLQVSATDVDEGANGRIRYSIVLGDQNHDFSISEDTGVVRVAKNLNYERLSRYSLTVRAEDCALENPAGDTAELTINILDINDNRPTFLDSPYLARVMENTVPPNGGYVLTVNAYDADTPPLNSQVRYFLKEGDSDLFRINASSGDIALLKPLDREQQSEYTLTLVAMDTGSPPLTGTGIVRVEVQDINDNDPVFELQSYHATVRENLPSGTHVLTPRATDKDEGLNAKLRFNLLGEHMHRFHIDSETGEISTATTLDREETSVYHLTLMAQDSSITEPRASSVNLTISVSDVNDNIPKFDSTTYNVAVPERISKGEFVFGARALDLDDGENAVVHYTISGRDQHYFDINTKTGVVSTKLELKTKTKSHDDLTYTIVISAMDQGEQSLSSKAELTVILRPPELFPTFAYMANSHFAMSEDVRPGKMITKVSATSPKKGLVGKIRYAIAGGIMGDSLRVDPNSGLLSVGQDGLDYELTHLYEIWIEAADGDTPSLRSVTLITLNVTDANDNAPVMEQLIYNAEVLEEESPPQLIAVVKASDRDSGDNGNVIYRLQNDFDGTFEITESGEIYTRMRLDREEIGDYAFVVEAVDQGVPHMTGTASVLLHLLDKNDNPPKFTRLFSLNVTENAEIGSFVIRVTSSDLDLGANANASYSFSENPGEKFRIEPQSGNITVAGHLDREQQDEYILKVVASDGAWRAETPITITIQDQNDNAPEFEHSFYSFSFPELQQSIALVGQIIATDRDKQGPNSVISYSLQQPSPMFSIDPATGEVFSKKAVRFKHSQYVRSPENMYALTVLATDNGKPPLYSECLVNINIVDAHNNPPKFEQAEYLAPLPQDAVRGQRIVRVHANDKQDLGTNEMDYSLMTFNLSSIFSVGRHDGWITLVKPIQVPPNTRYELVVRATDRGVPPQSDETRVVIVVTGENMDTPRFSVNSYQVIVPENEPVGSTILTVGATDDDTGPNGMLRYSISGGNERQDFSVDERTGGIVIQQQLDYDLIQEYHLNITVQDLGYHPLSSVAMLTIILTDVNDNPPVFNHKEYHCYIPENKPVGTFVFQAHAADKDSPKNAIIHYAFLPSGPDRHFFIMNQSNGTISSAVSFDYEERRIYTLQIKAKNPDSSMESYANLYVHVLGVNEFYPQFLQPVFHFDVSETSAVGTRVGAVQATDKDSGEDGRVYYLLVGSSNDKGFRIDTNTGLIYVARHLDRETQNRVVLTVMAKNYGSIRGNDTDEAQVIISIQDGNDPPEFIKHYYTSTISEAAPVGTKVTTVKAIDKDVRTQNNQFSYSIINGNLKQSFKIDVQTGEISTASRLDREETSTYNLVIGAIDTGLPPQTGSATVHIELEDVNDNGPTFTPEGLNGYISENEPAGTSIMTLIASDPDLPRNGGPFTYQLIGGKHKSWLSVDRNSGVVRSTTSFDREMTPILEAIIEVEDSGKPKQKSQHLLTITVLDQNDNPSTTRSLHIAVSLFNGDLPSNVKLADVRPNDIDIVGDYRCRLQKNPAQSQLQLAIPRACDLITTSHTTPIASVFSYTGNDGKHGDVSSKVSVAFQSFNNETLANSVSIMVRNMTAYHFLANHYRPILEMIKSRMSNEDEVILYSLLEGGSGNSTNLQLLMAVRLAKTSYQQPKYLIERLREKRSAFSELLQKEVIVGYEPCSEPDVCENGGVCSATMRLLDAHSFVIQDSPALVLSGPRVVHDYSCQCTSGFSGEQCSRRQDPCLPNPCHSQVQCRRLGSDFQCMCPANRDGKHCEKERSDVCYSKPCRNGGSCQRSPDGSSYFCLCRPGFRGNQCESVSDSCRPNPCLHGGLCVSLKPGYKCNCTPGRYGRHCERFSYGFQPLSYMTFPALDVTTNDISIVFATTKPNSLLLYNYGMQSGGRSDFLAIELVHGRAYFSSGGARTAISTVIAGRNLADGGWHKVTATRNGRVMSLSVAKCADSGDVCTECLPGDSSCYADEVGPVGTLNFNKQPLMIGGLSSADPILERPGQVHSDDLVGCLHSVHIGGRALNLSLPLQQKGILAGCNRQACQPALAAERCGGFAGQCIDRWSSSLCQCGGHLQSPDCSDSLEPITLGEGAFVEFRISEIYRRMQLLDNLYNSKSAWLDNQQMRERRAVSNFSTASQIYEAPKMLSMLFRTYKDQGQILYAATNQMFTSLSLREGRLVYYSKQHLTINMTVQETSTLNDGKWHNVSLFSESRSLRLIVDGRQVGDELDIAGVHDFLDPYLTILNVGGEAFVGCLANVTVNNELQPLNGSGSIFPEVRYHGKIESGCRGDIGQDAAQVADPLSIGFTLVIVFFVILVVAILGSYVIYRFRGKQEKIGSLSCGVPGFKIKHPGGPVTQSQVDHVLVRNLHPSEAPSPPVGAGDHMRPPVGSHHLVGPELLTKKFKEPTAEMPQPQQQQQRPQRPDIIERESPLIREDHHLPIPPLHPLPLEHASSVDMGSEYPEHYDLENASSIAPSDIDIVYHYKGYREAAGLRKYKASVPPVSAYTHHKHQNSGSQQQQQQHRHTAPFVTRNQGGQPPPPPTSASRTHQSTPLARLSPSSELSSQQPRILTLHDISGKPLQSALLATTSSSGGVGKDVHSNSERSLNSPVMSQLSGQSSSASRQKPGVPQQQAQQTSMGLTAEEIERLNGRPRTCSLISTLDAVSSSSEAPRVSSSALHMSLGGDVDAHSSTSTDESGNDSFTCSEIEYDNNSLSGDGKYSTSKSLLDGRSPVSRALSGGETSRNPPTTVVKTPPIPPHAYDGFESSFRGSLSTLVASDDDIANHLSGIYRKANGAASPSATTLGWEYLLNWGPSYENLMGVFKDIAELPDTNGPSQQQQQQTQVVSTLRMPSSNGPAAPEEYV

Target: Fat (UniProt P33450)
Assay: cell aggregation assay; tissue culture cells; recruitment of Dachs to the site of Ds-Ft binding was looked at (Figures S2L and S2M)

binding: binds
Substance: Dachsous (from UniProt Q24292 74-3556)
